The target of the test is SPTLC1^FLAG ex2del (ALS variant missing the whole of exon 2) (UniProt O15269). Description: co-IP.

Sequences of proteins named here, by UniProt entry; tags and fusion partners are left off. A change or cut given only in a name is not applied to a line headed by its entry.
UniProt O15269: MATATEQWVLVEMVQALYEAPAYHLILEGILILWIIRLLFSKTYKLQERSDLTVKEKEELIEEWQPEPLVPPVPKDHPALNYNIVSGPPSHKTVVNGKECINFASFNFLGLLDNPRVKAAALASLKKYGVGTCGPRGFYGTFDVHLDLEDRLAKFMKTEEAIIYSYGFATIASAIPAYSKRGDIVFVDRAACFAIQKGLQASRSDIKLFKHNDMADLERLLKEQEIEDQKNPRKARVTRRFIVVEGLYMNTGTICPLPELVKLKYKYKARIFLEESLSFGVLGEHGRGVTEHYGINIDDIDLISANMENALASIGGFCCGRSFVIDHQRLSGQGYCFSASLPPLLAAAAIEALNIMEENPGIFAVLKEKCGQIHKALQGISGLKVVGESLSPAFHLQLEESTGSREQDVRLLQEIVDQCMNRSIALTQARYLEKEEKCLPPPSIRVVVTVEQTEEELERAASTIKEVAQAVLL

Results are given in words; binding and its absence hold for the method and conditions named. Binding seen in cells or lysates may run through a third protein. Binding can be weak; no strength is given.

B1: SPTLC2 (serine-palmitoyltransferase subunit 2) (protein, UniProt O15270 1-562)
chain: MRPEPGGCCCRRTVRANGCVANGEVRNGYVRSSAAAAAAAAAGQIHHVTQNGGLYKRPFNEAFEETPMLVAVLTYVGYGVLTLFGYLRDFLRYWRIEKCHHATEREEQKDFVSLYQDFENFYTRNLYMRIRDNWNRPICSVPGARVDIMERQSHDYNWSFKYTGNIIKGVINMGSYNYLGFARNTGSCQEAAAKVLEEYGAGVCSTRQEIGNLDKHEELEELVARFLGVEAAMAYGMGFATNSMNIPALVGKGCLILSDELNHASLVLGARLSGATIRIFKHNNMQSLEKLLKDAIVYGQPRTRRPWKKILILVEGIYSMEGSIVRLPEVIALKKKYKAYLYLDEAHSIGALGPTGRGVVEYFGLDPEDVDVMMGTFTKSFGASGGYIGGKKELIDYLRTHSHSAVYATSLSPPVVEQIITSMKCIMGQDGTSLGKECVQQLAENTRYFRRRLKEMGFIIYGNEDSPVVPLMLYMPAKIGAFGREMLKRNIGVVVVGFPATPIIESRARFCLSAAHTKEILDTALKEIDEVGDLLQLKYSRHRLVPLLDRPFDETTYEETED
With B1, the binding entry is on record as “binds”.

The record behind these values is doi:10.1101/2022.04.29.490031.
